This note sets out measurements from publication PMC4999498.

The chains behind the UniProt entries cited, without tags or fusion partners. Where a name states a change or a piece, a line headed by the entry shows the natural chain unless it says otherwise.
UniProt P19973: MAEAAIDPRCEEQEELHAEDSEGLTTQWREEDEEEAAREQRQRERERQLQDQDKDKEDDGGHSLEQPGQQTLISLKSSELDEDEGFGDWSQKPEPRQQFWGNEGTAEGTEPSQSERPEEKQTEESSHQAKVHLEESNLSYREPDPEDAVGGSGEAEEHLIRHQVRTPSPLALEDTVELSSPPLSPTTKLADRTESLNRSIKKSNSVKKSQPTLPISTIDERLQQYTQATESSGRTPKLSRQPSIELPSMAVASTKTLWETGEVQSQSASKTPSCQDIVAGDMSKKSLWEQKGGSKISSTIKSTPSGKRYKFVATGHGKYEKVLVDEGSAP

No constants are given. Whether binding was seen depends on the method and setting. Binding seen in cells or lysates may run through a third protein. Some entries that bind do so weakly or less than the wild type.

Experiment [1] addresses Flag-EGFP-tagged wild-type mouse Lsp1 (lymphocyte-specific protein-1), expressed in 293T cells (mouse) (UniProt P19973). In words: co-IP; lysates of 293T cells ectopically expressing OGT and Flag-EGFP-tagged WT or S209A Lsp1; IP with anti-Flag, immunoblot for OGT; IP lysis buffer 50 mM Tris-Cl pH 8.0, 150 mM NaCl, 5 mM EDTA, 0.5% Triton X-100, 0.1% sodium deoxycholate, 4 °C overnight. (In general: In western blotting, separated proteins are transferred to a membrane and probed.)

Experiment [2] concerns the target Flag-EGFP-tagged S209A mouse Lsp1, expressed in 293T cells (mouse) (UniProt P19973). The experiment is described as above.

B1: mouse O-GlcNAc transferase (OGT), expressed in 293T cells (enzyme, UniProt Q8CGY8 1-1046)
chain: MASSVGNVADSTEPTKRMLSFQGLAELAHREYQAGDFEAAERHCMQLWRQEPDNTGVLLLLSSIHFQCRRLDRSAHFSTLAIKQNPLLAEAYSNLGNVYKERGQLQEAIEHYRHALRLKPDFIDGYINLAAALVAAGDMEGAVQAYVSALQYNPDLYCVRSDLGNLLKALGRLEEAKACYLKAIETQPNFAVAWSNLGCVFNAQGEIWLAIHHFEKAVTLDPNFLDAYINLGNVLKEARIFDRAVAAYLRALSLSPNHAVVHGNLACVYYEQGLIDLAIDTYRRAIELQPHFPDAYCNLANALKEKGSVAEAEDCYNTALRLCPTHADSLNNLANIKREQGNIEEAVRLYRKALEVFPEFAAAHSNLASVLQQQGKLQEALMHYKEAIRISPTFADAYSNMGNTLKEMQDVQGALQCYTRAIQINPAFADAHSNLASIHKDSGNIPEAIASYRTALKLKPDFPDAYCNLAHCLQIVCDWTDYDERMKKLVSIVAEQLEKNRLPSVHPHHSMLYPLSHGFRKAIAERHGNLCLDKINVLHKPPYEHPKDLKLSDGRLRVGYVSSDFGNHPTSHLMQSIPGMHNPDKFEVFCYALSPDDGTNFRVKVMAEANHFIDLSQIPCNGKAADRIHQDGIHILVNMNGYTKGARNELFALRPAPIQAMWLGYPGTSGALFMDYIITDQETSPAEVAEQYSEKLAYMPHTFFIGDHANMFPHLKKKAVIDFKSNGHIYDNRIVLNGIDLKAFLDSLPDVKIVKMKCPDGGDNPDSSNTALNMPVIPMNTIAEAVIEMINRGQIQITINGFSISNGLATTQINNKAATGEEVPRTIIVTTRSQYGLPEDAIVYCNFNQLYKIDPSTLQMWANILKRVPNSVLWLLRFPAVGEPNIQQYAQNMGLPQNRIIFSPVAPKEEHVRRGQLADVCLDTPLCNGHTTGMDVLWAGTPMVTMPGETLASRVAASQLTCLGCLELIAKSRQEYEDIAVKLGTDLEYLKKIRGKVWKQRISSPLFNTKQYTMELERLYLQMWEHYAAGNKPDHMIKPVEVTESA
Take B1: the binding result in experiment [1] and in experiment [2] was “binds” throughout.
